Experimental data: the supplement of paper PMC12067093, “Discovery and optimisation of a covalent ligand for TRIM25 and its application to targeted protein ubiquitination” (Chemical Science, 2025)
The other results are listed elsewhere or left out.

Chains of the proteins cited; added tags and fusions are not shown. Lines headed by an entry give the natural chain unless they say otherwise; changes in a name come on top.
UniProt Q9NV06: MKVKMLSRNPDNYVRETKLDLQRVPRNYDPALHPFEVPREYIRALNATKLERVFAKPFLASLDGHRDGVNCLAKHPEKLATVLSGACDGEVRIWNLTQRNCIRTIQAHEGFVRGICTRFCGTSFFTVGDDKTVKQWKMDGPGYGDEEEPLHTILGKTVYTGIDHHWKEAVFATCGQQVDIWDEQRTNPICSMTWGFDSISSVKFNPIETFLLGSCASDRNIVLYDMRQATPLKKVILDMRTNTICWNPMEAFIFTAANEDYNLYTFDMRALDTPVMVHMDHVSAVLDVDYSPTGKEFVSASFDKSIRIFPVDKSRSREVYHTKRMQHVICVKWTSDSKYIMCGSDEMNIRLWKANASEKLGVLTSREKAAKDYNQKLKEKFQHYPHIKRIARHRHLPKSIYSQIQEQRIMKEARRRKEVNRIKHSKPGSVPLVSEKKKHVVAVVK
UniProt Q8IWT3: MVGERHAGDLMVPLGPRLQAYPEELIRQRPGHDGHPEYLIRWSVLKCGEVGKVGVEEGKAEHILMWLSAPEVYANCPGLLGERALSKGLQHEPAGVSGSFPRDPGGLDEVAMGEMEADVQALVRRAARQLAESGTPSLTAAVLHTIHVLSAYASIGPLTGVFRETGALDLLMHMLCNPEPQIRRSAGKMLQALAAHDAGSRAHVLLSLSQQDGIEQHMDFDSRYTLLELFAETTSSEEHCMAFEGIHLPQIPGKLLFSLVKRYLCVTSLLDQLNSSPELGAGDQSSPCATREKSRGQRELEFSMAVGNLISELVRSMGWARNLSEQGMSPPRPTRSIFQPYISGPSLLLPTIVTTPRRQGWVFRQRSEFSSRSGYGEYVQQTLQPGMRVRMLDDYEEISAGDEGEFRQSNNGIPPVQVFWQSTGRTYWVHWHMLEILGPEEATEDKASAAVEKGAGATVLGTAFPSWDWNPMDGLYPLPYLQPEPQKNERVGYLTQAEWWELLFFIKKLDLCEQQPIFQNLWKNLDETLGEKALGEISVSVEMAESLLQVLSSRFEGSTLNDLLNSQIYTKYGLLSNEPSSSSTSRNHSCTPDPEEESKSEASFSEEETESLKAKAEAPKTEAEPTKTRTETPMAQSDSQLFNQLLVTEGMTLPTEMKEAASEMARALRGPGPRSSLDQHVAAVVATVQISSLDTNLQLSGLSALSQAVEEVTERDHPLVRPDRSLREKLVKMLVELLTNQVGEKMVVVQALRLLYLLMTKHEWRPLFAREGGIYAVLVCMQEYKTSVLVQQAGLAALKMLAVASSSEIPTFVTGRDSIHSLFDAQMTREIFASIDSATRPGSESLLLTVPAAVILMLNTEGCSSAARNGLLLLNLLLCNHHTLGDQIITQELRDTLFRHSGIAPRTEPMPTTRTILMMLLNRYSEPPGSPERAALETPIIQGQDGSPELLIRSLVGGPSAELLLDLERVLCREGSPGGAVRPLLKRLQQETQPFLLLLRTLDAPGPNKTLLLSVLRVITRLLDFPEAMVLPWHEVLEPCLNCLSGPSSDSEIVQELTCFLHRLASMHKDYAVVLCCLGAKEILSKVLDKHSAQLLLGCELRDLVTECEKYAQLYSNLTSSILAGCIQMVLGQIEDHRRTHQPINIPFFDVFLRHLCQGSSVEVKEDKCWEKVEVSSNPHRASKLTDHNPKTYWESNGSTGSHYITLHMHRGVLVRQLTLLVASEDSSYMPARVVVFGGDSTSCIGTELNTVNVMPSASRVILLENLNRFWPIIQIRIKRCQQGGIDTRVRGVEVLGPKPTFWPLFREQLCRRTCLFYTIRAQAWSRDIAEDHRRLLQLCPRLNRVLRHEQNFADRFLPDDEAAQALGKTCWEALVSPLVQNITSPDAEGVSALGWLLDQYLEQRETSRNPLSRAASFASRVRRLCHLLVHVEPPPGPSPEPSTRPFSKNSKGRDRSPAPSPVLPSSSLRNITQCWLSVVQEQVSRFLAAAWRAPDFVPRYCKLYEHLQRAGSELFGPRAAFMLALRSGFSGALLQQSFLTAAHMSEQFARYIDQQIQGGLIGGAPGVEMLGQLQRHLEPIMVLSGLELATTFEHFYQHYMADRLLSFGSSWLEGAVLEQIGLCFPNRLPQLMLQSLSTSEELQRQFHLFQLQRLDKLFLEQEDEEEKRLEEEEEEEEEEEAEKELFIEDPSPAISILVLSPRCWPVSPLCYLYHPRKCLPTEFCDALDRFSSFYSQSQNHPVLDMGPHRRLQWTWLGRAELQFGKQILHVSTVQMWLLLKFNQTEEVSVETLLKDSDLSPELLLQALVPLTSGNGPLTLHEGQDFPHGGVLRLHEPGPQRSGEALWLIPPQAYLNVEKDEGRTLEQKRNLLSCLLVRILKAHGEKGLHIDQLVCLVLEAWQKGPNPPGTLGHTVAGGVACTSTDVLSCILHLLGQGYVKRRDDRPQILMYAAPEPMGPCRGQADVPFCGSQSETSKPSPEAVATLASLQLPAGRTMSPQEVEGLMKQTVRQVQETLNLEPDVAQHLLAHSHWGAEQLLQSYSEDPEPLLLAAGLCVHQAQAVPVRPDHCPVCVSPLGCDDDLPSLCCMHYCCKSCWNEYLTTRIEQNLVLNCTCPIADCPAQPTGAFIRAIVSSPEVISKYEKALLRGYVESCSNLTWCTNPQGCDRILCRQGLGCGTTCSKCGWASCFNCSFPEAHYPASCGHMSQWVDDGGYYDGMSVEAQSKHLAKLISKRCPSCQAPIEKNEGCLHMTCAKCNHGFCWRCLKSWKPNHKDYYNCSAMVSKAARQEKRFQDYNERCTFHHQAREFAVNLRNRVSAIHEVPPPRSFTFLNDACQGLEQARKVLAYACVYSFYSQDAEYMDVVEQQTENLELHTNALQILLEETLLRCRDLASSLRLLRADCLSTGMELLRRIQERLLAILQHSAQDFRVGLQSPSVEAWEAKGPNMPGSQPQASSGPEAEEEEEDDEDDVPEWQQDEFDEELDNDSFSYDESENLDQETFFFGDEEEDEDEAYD
UniProt Q13616, whole entry, looked up: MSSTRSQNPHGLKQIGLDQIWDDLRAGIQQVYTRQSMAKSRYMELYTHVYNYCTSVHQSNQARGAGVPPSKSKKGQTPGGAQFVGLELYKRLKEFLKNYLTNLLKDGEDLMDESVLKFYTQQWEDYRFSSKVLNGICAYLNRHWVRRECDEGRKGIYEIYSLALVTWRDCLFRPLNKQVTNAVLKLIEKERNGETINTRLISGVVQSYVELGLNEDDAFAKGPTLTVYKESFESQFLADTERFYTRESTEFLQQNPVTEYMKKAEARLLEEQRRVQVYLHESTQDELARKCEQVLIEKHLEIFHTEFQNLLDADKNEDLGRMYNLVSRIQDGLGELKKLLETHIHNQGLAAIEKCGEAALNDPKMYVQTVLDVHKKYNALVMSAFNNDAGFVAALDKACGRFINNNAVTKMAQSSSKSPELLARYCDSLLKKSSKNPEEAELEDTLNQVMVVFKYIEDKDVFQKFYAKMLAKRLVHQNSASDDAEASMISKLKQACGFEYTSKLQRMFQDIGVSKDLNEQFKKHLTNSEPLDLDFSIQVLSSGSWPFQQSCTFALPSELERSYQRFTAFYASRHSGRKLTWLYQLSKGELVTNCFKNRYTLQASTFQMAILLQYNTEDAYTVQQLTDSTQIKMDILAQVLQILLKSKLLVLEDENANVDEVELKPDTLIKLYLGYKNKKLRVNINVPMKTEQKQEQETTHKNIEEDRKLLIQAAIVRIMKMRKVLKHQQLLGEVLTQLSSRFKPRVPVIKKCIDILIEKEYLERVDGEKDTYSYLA
UniProt Q9Y4B6: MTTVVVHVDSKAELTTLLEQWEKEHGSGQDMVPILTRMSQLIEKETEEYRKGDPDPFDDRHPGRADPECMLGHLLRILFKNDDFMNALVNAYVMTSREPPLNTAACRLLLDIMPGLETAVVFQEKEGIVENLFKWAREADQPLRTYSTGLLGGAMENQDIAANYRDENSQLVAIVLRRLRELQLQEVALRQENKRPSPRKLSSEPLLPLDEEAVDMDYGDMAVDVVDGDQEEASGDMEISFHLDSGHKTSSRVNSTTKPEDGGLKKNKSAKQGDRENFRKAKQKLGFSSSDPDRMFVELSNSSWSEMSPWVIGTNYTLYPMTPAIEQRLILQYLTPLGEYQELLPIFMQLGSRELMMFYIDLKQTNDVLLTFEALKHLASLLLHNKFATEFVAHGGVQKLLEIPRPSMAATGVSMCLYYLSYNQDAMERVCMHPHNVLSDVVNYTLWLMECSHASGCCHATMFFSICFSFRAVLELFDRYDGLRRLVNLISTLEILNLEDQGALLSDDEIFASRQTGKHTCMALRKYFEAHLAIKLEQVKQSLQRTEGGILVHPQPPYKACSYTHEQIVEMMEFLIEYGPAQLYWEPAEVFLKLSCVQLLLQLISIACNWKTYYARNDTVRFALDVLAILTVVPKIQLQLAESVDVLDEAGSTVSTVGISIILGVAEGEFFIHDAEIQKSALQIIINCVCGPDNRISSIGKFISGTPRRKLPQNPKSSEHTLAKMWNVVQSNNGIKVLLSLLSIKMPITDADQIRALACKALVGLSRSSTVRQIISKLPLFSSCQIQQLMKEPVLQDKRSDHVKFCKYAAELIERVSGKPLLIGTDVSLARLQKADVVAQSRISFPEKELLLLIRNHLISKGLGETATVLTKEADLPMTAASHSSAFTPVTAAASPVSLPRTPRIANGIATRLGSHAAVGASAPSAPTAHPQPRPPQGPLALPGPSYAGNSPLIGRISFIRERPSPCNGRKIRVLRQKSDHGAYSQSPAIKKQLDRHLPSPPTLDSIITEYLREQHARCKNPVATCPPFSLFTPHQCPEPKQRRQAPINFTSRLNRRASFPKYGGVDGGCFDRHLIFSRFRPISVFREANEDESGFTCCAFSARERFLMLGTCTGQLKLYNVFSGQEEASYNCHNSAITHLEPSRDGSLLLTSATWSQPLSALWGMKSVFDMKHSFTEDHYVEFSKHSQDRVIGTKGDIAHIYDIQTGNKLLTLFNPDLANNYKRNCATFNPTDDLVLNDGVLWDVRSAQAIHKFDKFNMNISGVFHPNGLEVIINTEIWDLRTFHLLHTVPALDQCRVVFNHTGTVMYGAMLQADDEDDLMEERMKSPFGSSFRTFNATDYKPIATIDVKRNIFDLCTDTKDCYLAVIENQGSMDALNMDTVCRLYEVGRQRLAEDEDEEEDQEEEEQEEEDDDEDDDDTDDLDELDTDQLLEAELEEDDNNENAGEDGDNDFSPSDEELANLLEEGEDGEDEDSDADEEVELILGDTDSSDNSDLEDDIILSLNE
UniProt Q9UBR2: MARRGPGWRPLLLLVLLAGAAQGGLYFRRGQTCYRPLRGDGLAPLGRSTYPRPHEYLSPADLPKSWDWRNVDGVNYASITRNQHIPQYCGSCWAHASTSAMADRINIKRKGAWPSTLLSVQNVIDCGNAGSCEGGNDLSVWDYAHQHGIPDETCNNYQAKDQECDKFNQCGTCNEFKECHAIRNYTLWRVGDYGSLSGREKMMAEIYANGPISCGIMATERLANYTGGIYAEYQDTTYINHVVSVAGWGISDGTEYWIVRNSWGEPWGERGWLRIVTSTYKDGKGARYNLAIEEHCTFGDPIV
UniProt Q96C86: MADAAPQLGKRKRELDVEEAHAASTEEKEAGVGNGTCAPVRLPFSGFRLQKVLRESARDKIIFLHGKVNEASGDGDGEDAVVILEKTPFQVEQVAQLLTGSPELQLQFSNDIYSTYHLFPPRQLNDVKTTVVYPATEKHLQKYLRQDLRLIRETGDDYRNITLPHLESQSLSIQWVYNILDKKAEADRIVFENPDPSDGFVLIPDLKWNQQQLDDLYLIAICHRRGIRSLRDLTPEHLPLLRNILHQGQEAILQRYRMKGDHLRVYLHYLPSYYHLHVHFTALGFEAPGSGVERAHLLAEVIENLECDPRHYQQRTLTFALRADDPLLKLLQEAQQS
UniProt Q9P0U4, whole entry, looked up: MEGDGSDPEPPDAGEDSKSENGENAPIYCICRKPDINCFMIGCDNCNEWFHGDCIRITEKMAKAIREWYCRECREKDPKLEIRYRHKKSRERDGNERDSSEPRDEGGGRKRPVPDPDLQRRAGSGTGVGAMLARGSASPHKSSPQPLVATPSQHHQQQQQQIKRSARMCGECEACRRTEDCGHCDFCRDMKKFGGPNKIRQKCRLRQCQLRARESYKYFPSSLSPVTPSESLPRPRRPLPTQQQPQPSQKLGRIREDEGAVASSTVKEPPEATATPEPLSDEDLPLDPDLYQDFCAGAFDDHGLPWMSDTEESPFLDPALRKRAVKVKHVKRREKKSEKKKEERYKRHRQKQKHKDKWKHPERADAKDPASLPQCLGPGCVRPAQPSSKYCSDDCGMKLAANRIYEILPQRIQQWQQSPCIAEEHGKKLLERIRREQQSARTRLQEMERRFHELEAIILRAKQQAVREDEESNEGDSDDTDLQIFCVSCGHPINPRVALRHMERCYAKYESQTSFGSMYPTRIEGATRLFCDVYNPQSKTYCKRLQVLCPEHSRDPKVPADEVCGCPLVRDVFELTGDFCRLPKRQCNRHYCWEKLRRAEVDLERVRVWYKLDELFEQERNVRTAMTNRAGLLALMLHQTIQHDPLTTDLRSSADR

Compound: Cc1cc(ccc1-c1ccccc1)C(=O)N1CCCN(CC1)C(=O)CCl [compound 10]
Assay: probe-labelled cysteine peptide fold change vs DMSO (competition) (log2 fold change); higher = less target engagement (more negative = stronger competition)
Conditions: THP-1, incubation time: 4 h
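Further: competitive profiling in live THP-1 cells: cysteine peptides tagged with an iodoacetamide desthiobiotin (IA-DTB) probe, intensity after compound treatment relative to DMSO-treated cells.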

Target | probe-labelled cysteine peptide fold change (10 µM) | probe-labelled cysteine peptide fold change (50 µM)
DCAF13_Q9NV06_342_YIMCGSDEMNIR (UniProt Q9NV06) | -0.0629 | 0.0402
CUL9_Q8IWT3_1725_CLPTEFCDALDR (UniProt Q8IWT3) | -0.147 | -0.209
CUL1_Q13616_496_QACGFEYTSK (UniProt Q13616) | 0.0722 | -0.0615
DCAF1_Q9Y4B6_69_ADPECMLGHLLR (UniProt Q9Y4B6) | -0.106 | -0.124
CTSZ_Q9UBR2_214_MMAEIYANGPISCGIMATER (UniProt Q9UBR2) | -0.126 | -0.0828
DCAF13_Q9NV06_71_DGVNCLAK (UniProt Q9NV06) | -0.188 | -0.0754
CTSB_P07858_59_LCGTFLGGPKPPQR (UniProt P07858) | 0.145 | -0.146
CTSH_P09668_272_TGIYSSTSCHK (UniProt P09668) | 0.176 | -0.114
DCTN4_Q9UJW0_280_CEHNLSKPEFNPTSIK (UniProt Q9UJW0) | -0.153 | -0.202
DCAF1_Q9Y4B6_1070_YGGVDGGCFDR (UniProt Q9Y4B6) | 0.00316 | -0.239
DCPS_Q96C86_222_WNQQQLDDLYLIAICHR (UniProt Q96C86) | 0.144 | 0.0953
CXXC1_Q9P0U4_564_VPADEVCGCPLVR (UniProt Q9P0U4) | 0.111 | -0.109

Complete entries from above. Order of values: probe-labelled cysteine peptide fold change (10 µM) | probe-labelled cysteine peptide fold change (50 µM)
DCPS_Q96C86_222_WNQQQLDDLYLIAICHR (UniProt Q96C86) in the list: 0.144 | 0.0953
CUL1_Q13616_496_QACGFEYTSK (UniProt Q13616) in the list: 0.0722 | -0.0615
